Here are results for one molecule from PMC9115922.

No constants are given. Whether binding was seen depends on the method and setting. Binding seen in cells or lysates may run through a third protein. A yes stands for co-enrichment or nearness to the bait. Other partners may have been found.

The target in the assay is p35 (bait of the mass spectrometry-based interactome screen). As to the kind of experiment: affinity purification with mass spectrometry; p35 interactome screen, tandem mass spectrometry; the set-up is in refs 23, 24.

B1: JIP1 (mouse, hit of the p35 interactome screen) (protein, UniProt Q9WVI9 1-707)
chain: MAERESGLGGGAASPPAASPFLGLHIASPPNFRLTHDISLEEFEDEDLSEITDECGISLQCKDTLSLRPPRAGLLSAGSSGSAGSRLQAEMLQMDLIDAAGDTPGAEDDEEEEDDELAAQRPGVGPPKAESNQDPAPRSQGQGPGTGSGDTYRPKRPTTLNLFPQVPRSQDTLNNNSLGKKHSWQDRVSRSSSPLKTGEQTPPHEHICLSDELPPQGSPVPTQDRGTSTDSPCRRSAATQMAPPSGPPATAPGGRGHSHRDRIHYQADVRLEATEEIYLTPVQRPPDPAEPTSTFMPPTESRMSVSSDPDPAAYSVTAGRPHPSISEEDEGFDCLSSPERAEPPGGGWRGSLGEPPPPPRASLSSDTSALSYDSVKYTLVVDEHAQLELVSLRPCFGDYSDESDSATVYDNCASASSPYESAIGEEYEEAPQPRPPTCLSEDSTPDEPDVHFSKKFLNVFMSGRSRSSSAESFGLFSCVINGEEHEQTHRAIFRFVPRHEDELELEVDDPLLVELQAEDYWYEAYNMRTGARGVFPAYYAIEVTKEPEHMAALAKNSDWIDQFRVKFLGSVQVPYHKGNDVLCAAMQKIATTRRLTVHFNPPSSCVLEISVRGVKIGVKADDALEAKGNKCSHFFQLKNISFCGYHPKNNKYFGFITKHPADHRFACHVFVSEDSTKALAESVGRAFQQFYKQFVEYTCPTEDIYLE
B1: the binding entry is on record as “binds”.
